Test results as given in PubChem BioAssay AID192 (DTP/NCI, 2004).
The list does not hold the whole screen: it is rich in T/C values a quarter to a half above the control, in often repeated tests (any T/C) and in doses without a T/C. Other doses and runs of a compound stand elsewhere. T/C is the treated group as % of the vehicle group. Some doses have a count of surviving animals in place of a T/C: the source holds a T/C of zero for them, seemingly a mark for toxic or unscored doses. Some survivor counts are full or nearly so, which does not show that the dose was tolerated: survival well below the control is almost never listed, so the zero probably covers shortened survival too. Survivors were counted at the toxicity check, usually on the fifth day, unless a day is given; later deaths do not show. Schedule codes are those of the source, taken here to give the interval after Q, in days (D) or hours (H), and the number of doses after X. Some doses were run more than once; the values are given in rising order. Where survival is the endpoint, this PubChem deposit counts one and a half times the control or more as active, and values a quarter to a half above the control carry no call in these data; other NCI protocols may use other cut-offs. Some T/C values are followed by the survivors on the day toxicity was checked, most often the fifth; where none is given, no animal had died by that day.

Test system: BDF1 mice, B16 melanoma ip, median survival T/C
Test: NCI In Vivo Anticancer Drug Screen. Data for tumor model B16 Melanoma (intraperitoneal) in B6D2F1 (BDF1) mice
Settings: T/C endpoint: median survival time, higher T/C = longer survival
How it was run: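 In this screen, activity was judged from survival or tumor size in treated versus vehicle-treated tumor-bearing mice, reported as T/C.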

[1] = dose: 200.0 mg/kg/injection, schedule: Q01DX009 (ip), vehicle: saline with Tween-80
[2] = dose: 50.0 mg/kg/injection, schedule: Q01DX009 (ip), vehicle: saline
[3] = dose: 100.0 mg/kg/injection, schedule: Q01DX009 (ip), vehicle: Klucel (hydroxypropylcellulose) (HPC)

SMILES: [Cl][Pt+2][Cl].[NH-]c1cc(Cl)c(Cl)cc1[NH-]
- T/C (dose: 20.0 mg/kg/injection, schedule: Q01DX009 (ip), vehicle: saline with Tween-80): 125 % of control
- T/C (dose: 160.0 mg/kg/injection, schedule: Q01DX009 (ip), vehicle: saline with Tween-80): 132 % of control

SMILES: CC(C)CC(NC(=O)c1ccccc1)C(=O)O (stereo not drawn)
- survivor count [1]: 9 of 10
- survivor count (dose: 400.0 mg/kg/injection, schedule: Q01DX009 (ip), vehicle: saline with Tween-80): 10 of 10

SMILES: CC(C)CNc1ccc(S(=O)(=O)c2ccc(NCC(C)C)c([N+](=O)[O-])c2)cc1[N+](=O)[O-]
- survivor count (dose: 12.5 mg/kg/injection, schedule: Q01DX009 (ip), vehicle: saline): 10 of 10
- survivor count [2]: 10 of 10

SMILES: CC1CN1P(=O)(N1CC1C)N1CC1C (stereo not drawn)
- T/C (dose: 25.0 mg/kg/injection, schedule: Q01DX009 (ip), vehicle: saline): 134 % of control
- survivor count [2]: 9 of 10 and 10 of 10
- survivor count (dose: 100.0 mg/kg/injection, schedule: Q01DX009 (ip), vehicle: saline): 10 of 10
- survivor count (dose: 200.0 mg/kg/injection, schedule: Q04DX003 (ip), vehicle: saline): 7 of 10

SMILES: Nc1nc(-c2ccccc2N=NN2CCCC2)nc2ccccc12
- survivor count [3]: 8 of 10

SMILES: COc1ccc(N=C=Nc2ccc(OC)cc2)cc1
- survivor count (dose: 50.0 mg/kg/injection, schedule: Q01DX009 (ip), vehicle: Klucel (hydroxypropylcellulose) (HPC)): 9 of 10

SMILES: O=C(O)O.O=C(O)O.O=C(O)O.[Co]
- survivor count (dose: 100.0 mg/kg/injection, schedule: Q04DX003 (ip), vehicle: saline with Tween-80): 7 of 10

SMILES: COc1cccc2c1C(=O)c1c(O)c3c(c(O)c1C2=O)C[C@@](O)(/C(C)=N\NC=O)C[C@@H]3OC1CC(N)C(O)C(C)O1 (stereo partly drawn)
- survivor count (dose: 24.0 mg/kg/injection, schedule: Q01DX009 (ip), vehicle: saline): 10 of 10

SMILES: CCOC(=O)C(C(=O)OCC)=C(C)C
- T/C (dose: 400.0 mg/kg/injection, schedule: Q01DX009 (ip), vehicle: saline): 125 % of control

SMILES: CC[N+](CC)(CC)CC.N#C/C([SH2+])=C(/[SH2+])C#N.N#C/C([SH2+])=C(/[SH2+])C#N.[Cu+2]
- survivor count (dose: 50.0 mg/kg/injection, schedule: Q04DX003 (ip), vehicle: Klucel (hydroxypropylcellulose) (HPC)): 2 of 10 and 9 of 10
- survivor count (dose: 100.0 mg/kg/injection, schedule: Q04DX003 (ip), vehicle: Klucel (hydroxypropylcellulose) (HPC)): 0 of 10
- survivor count (dose: 200.0 mg/kg/injection, schedule: Q04DX003 (ip), vehicle: Klucel (hydroxypropylcellulose) (HPC)): 0 of 10

SMILES: C[C@@H]1CC2=CC(=O)CC[C@@H]2[C@H]2CC[C@@]3(C)[C@@H](CC[C@]3(C)O)[C@@H]21
- survivor count [1]: 6 of 6

SMILES: C=C1C(=O)OC2CC1C(OC(=O)/C=C/c1ccccc1)C/C(C)=C/CC/C(C)=C/CCC2(C)O (stereo not drawn)
- survivor count [3]: 7 of 10

SMILES: COc1cccc(OC)c1C(c1c(OC)cccc1OC)c1c(OC)cccc1OC
- T/C (dose: 12.5 mg/kg/injection, schedule: Q04DX003 (ip), vehicle: saline with Tween-80): 132 % of control [9 of 10 alive]

SMILES: CCCCCCCCCCCCCCCC(=O)N(CCCN(C)C)CCCN(CCCN(C)C)C(=O)CCCCCCCCCCCCCCC
- survivor count (dose: 25.0 mg/kg/injection, schedule: Q01DX009 (ip), vehicle: water): 10 of 10

SMILES: O=Cc1cc([N+](=O)[O-])ccc1Cl
- survivor count [1]: 9 of 10
